Reference: PubChem BioAssay AID248 (DTP/NCI, 2004)
The list is a part of this screen's results and no random one: it gathers tests that were run many times, whatever their T/C, doses with no T/C, and many T/C values between a quarter and a half above the control. Further doses and runs are listed elsewhere. T/C: endpoint of the treated group in % of that of the vehicle group. Some entries give survivors of the animals treated and no T/C: the source holds a T/C of zero for them, seemingly a mark for toxic or unscored doses. Some doses without a T/C left all or most animals alive at the check, yet need not have been tolerated: the source hardly ever lists a survival T/C far under the control, and the zero likely stands for such cases as well. Counts of survivors are from the toxicity check (mostly the fifth day) where no day follows; animals may have died later. Schedule codes are those of the source, read here as Q, the interval in days (D) or hours (H), X, the number of doses. Some schedules carry Z or #; the key to these is not given. Some structures stand for samples that the source files as different forms (salt, stereo form or complex); doses refer to the form tested. Where survival is the endpoint, the PubChem record calls one and a half times the control and up active, and a quarter to a half above the control has no call in these data; cut-offs in other NCI protocols can differ. Some entries hold several experiments; their values stand side by side, smallest first. Some T/C values are followed by the survivors on the day toxicity was checked, most often the fifth; where none is given, no animal had died by that day.

Test system: L1210 leukemia ip in BDF1 mice, survival T/C
Experiment: NCI In Vivo Anticancer Drug Screen. Data for tumor model L1210 Leukemia (intraperitoneal) in B6D2F1 (BDF1) mice
Details: T/C endpoint: mean survival time, higher T/C = longer survival
[1] = dose: 200.0 mg/kg/injection, schedule: Q01DX009 (ip), vehicle: Klucel (hydroxypropylcellulose) (HPC)
[2] = dose: 200.0 mg/kg/injection, schedule: Q04DX002 (ip), vehicle: Klucel (hydroxypropylcellulose) (HPC)
[3] = dose: 400.0 mg/kg/injection, schedule: Q04DX002 (ip), vehicle: Klucel (hydroxypropylcellulose) (HPC)
[4] = dose: 400.0 mg/kg/injection, schedule: Q01DX001 (ip), vehicle: saline
[5] = dose: 400.0 mg/kg/injection, schedule: Q04DX003 (ip), vehicle: saline
[6] = dose: 100.0 mg/kg/injection, schedule: Q04DX003 (ip), vehicle: saline
[7] = dose: 200.0 mg/kg/injection, schedule: Q04DX003 (ip), vehicle: saline
[8] = dose: 400.0 mg/kg/injection, schedule: Q01DX009 (ip), vehicle: Klucel (hydroxypropylcellulose) (HPC)
[9] = dose: 100.0 mg/kg/injection, schedule: Q04DX003 (ip), vehicle: saline with Tween-80
[10] = dose: 200.0 mg/kg/injection, schedule: Q01DX009 (ip), vehicle: saline with Tween-80
[11] = dose: 400.0 mg/kg/injection, schedule: Q01DX009 (ip), vehicle: saline with Tween-80
[12] = dose: 400.0 mg/kg/injection, schedule: Q04DX003 (ip), vehicle: Klucel (hydroxypropylcellulose) (HPC)
[13] = dose: 400.0 mg/kg/injection, schedule: Q01DX001 (ip), vehicle: Klucel (hydroxypropylcellulose) (HPC)

For `CCCCCCCN1CCC(C(=O)CC)(c2cccc(O)c2)CC1`, the survivor count (dose: 100.0 mg/kg/injection, schedule: Q01DX009 (ip), vehicle: Klucel (hydroxypropylcellulose) (HPC)) was 0 of 3, the survivor count [1] was 0 of 3 and the survivor count [2] was 0 of 3. The survivor count [3] was 0 of 3.

`Nc1ccc(C(=O)N/N=C/c2ccc(N(CCBr)CCBr)cc2)cc1` was tested, and the T/C (dose: 25.0 mg/kg/injection, schedule: Q01DX Z (ip), vehicle: carboxymethylcellulose (CMC)) was 134 % of control [5 of 6 alive], the T/C (dose: 50.0 mg/kg/injection, schedule: Q01DX Z (ip), vehicle: carboxymethylcellulose (CMC)) was 138 % of control and the survivor count (dose: 100.0 mg/kg/injection, schedule: Q01DX Z (ip), vehicle: carboxymethylcellulose (CMC)) was 6 of 6. For the same compound, the T/C [4] was 127 % of control [3 of 4 alive].

In the case of `Cn1c(=O)c2n[se]nc2n(C)c1=O`, the survivor count (dose: 12.5 mg/kg/injection, schedule: Q01DX009 (ip), vehicle: Klucel (hydroxypropylcellulose) (HPC)) was 3 of 3, the survivor count (dose: 50.0 mg/kg/injection, schedule: Q04DX002 (ip), vehicle: Klucel (hydroxypropylcellulose) (HPC)) was 0 of 3 and the survivor count (dose: 100.0 mg/kg/injection, schedule: Q04DX002 (ip), vehicle: Klucel (hydroxypropylcellulose) (HPC)) was 0 of 3. For the same compound, the survivor count [2] was 0 of 3 and the survivor count [3] was 0 of 3.

In the case of `CCOC(=O)N/N=C(/C)OCC`, the survivor count [5] was 5 of 6.

With `C[n+]1cc2ccccc2c2ccccc21` the survivor count (dose: 50.0 mg/kg/injection, schedule: Q04DX003 (ip), vehicle: water) was 2 of 6, the survivor count [6] was 2 of 6 and the survivor count (dose: 100.0 mg/kg/injection, schedule: Q04DX003 (ip), vehicle: water) was 5 of 6. For the same compound, the survivor count [7] was 1 of 6, the survivor count (dose: 200.0 mg/kg/injection, schedule: Q04DX003 (ip), vehicle: water) was 1 of 6 and the survivor count [5] was 0 of 6. The survivor count (dose: 400.0 mg/kg/injection, schedule: Q04DX003 (ip), vehicle: water) was 1 of 6.

`CCCC1C2=C(C(=O)OC2=O)C2C(CC)CC3=C(C(=O)OC3=O)C12` (configuration not stated) was tested, and the survivor count (dose: 335.0 mg/kg/injection, schedule: Q01DX001 (ip), vehicle: Klucel (hydroxypropylcellulose) (HPC)) was 1 of 6.

For `C=CCN(CC=C)c1ccc(N(CC)CC)cc1`, the survivor count [8] was 3 of 6.

For `CCc1cccc2c1C(=O)OC2=O`, the survivor count (dose: 400.0 mg/kg/injection, schedule: Q01DX009 (ip), vehicle: saline) was 2 of 6.

In the case of `CC1c2ccccc2N(CCCN(C)C)c2ccccc21`, the survivor count [6] was 2 of 6 and the survivor count [7] was 0 of 6.

In the case of `O=c1[nH]c(=O)ss1`, the survivor count [5] was 0 of 4.

For `O=c1[nH]cnc2c1nnn2C1OC(CO)C(O)C1O` (configuration not stated), the T/C (dose: 40.0 mg/kg/injection, schedule: Q01DX009 (ip), vehicle: saline) was 129 and 142 % of control and the T/C (dose: 60.0 mg/kg/injection, schedule: Q01DX009 (ip), vehicle: saline) was 141 and 143 % of control.

In the case of `CC(=O)N(C)C`, the T/C (dose: 1500.0 mg/kg/injection, schedule: Q01DX Z (ip), vehicle: other) was 139 % of control, the T/C (dose: 2000.0 mg/kg/injection, schedule: Q01DX Z (ip), vehicle: other) was 131 % of control and the T/C (dose: 2500.0 mg/kg/injection, schedule: Q01DX Z (ip), vehicle: other) was 144 % of control [4 of 6 alive].

For `COC1/C=C/OC2(C)Oc3c(C)c(O)c4c(O)c(c(/C=N/N5C(C)CN(Cc6ccccc6)CC5C)c(O)c4c3C2=O)NC(=O)C(C)=C/C=C/C(C)C(O)C(C)C(O)C(C)C(OC(C)=O)C1C` (configuration not stated), the survivor count [1] was 9 of 9 and the survivor count [8] was 1 of 10.

For `O=c1[nH]c2nc(Cl)c(Cl)nc2[nH]1`, the survivor count [5] was 1 of 6.

`CCCCCCCCCCCCCCCC[n+]1ccc(/C=C/c2ccccc2)cc1` was tested, and the survivor count (dose: 15.0 mg/kg/injection, schedule: Q01DX001 (ip), vehicle: carboxymethylcellulose (CMC)) was 6 of 6, the survivor count (dose: 30.0 mg/kg/injection, schedule: Q01DX001 (ip), vehicle: carboxymethylcellulose (CMC)) was 2 of 6 and the survivor count (dose: 60.0 mg/kg/injection, schedule: Q01DX001 (ip), vehicle: carboxymethylcellulose (CMC)) was 0 of 6. For the same compound, the survivor count (dose: 75.0 mg/kg/injection, schedule: Q01DX001 (ip), vehicle: carboxymethylcellulose (CMC)) was 0 of 6, the survivor count (dose: 150.0 mg/kg/injection, schedule: Q01DX001 (ip), vehicle: carboxymethylcellulose (CMC)) was 0 of 6 and the survivor count (dose: 300.0 mg/kg/injection, schedule: Q01DX001 (ip), vehicle: carboxymethylcellulose (CMC)) was 0 of 6.

With `CC1(C)CC(=O)C(C)(C)C(=O)C1` the survivor count (dose: 25.0 mg/kg/injection, schedule: Q01DX009 (ip), vehicle: saline with Tween-80) was 5 of 6, the survivor count (dose: 50.0 mg/kg/injection, schedule: Q04DX003 (ip), vehicle: saline with Tween-80) was 0 of 6 and the survivor count [9] was 0 of 6.

`CCN(CC)CC(=O)NCC(CCN(C)C)(CCN(C)C)c1cccc2ccccc12` was tested, and the survivor count [10] was 6 of 6 and the survivor count [11] was 6 of 6.

`CSCCC(C#N)(CCN(C)C)c1ccccc1` (configuration not stated) was tested, and the survivor count [10] was 1 of 6, the survivor count [11] was 0 of 6 and the survivor count [12] was 0 of 6.

With `N#CCCNC(=S)Nc1ccccc1` the survivor count (dose: 100.0 mg/kg/injection, schedule: Q01DX Z (ip), vehicle: methylcellulose (MC)) was 6 of 6 and the survivor count (dose: 200.0 mg/kg/injection, schedule: Q01DX Z (ip), vehicle: methylcellulose (MC)) was 5 of 6.

For `CCSC(SCC)C(OC(C)=O)C(OC(C)=O)C(OC(C)=O)C(COC(c1ccccc1)(c1ccccc1)c1ccccc1)OC(C)=O` (configuration not stated), the survivor count (dose: 400.0 mg/kg/injection, schedule: Q04DX002 (ip), vehicle: saline with Tween-80) was 3 of 3.

`CC1([N+](=O)[O-])COP(=O)(NC2CCCC2)OC1` (configuration not stated) was tested, and the survivor count [4] was 1 of 4.

`CC(=O)OCC1OC(O)C(NC(=O)C(F)(F)F)C(OC(C)=O)C1OC(C)=O` (configuration not stated) was tested, and the survivor count (dose: 50.0 mg/kg/injection, schedule: Q04DX003 (ip), vehicle: saline) was 2 of 6, the survivor count [6] was 0 of 6 and the survivor count [7] was 0 of 6. For the same compound, the survivor count [5] was 0 of 6.

`CN(CCCN1C(=O)c2ccccc2C1=O)c1ccc(N=O)cc1` was tested, and the survivor count (dose: 200.0 mg/kg/injection, schedule: Q01DX001 (ip), vehicle: Klucel (hydroxypropylcellulose) (HPC)) was 2 of 6 and the survivor count [13] was 1 of 6.

`CC1(C)C2CC=C(C[P+](c3ccccc3)(c3ccccc3)c3ccccc3)C1C2` (configuration not stated) was tested, and the survivor count [9] was 0 of 6, the survivor count (dose: 200.0 mg/kg/injection, schedule: Q04DX003 (ip), vehicle: saline with Tween-80) was 0 of 6 and the survivor count (dose: 400.0 mg/kg/injection, schedule: Q04DX003 (ip), vehicle: saline with Tween-80) was 0 of 6.

For `Cc1cc(C)c(CCN(C)C)c(C)c1`, the survivor count [4] was 1 of 4.

With `Nc1ccccc1C(=O)c1ccccc1` the survivor count [13] was 3 of 6, the survivor count [11] was 6 of 6 and the survivor count [12] was 2 of 6.

For `COc1ccc(N(C)C(C)=S)cc1`, the survivor count (dose: 400.0 mg/kg/injection, schedule: Q04DX003 (ip), vehicle: gum acacia) was 5 of 6.
